Among the data in PMC1187922 are binding values, retold here.

Protein sequences, listed by entry. Tags and fused reporters are not part of them. Lines headed by an entry give the natural chain unless they say otherwise; changes in a name come on top.
UniProt P04608: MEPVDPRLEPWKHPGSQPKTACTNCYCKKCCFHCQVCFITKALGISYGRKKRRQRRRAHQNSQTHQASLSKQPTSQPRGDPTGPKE
UniProt P50750: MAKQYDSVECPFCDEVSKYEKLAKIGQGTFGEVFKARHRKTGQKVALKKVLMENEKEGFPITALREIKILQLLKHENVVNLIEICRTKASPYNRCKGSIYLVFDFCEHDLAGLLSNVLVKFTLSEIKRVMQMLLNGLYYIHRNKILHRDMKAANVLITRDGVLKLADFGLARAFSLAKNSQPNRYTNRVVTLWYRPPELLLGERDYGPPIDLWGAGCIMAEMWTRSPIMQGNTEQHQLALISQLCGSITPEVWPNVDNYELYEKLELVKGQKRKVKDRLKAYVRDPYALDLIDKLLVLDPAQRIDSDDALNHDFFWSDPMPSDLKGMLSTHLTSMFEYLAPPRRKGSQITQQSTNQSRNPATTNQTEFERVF

The assay has as its target Recombinant HIV-1 Tat protein (HIV-1) (UniProt P04608). Briefly: pull-down; both purified.

Results are given in words; binding and its absence hold for the method and conditions named. Some results given as binding are weak or reduced against the parent protein; the word gives no strength.

As to “Human recombinant P-TEFb (CDK9/cyclin T1), untreated (from UniProt P50750 1-372; O60563 1-726) (complex)”, the binding result is on record as “binds”. For “Recombinant CDK9/cyclin T1 treated with PP1 (from UniProt P50750 1-372; O60563 1-726) (complex)” the value was “binds”.
